In PubChem BioAssay AID504467 (National Center for Advancing Translational Sciences (NCATS), 2011):
Screen size: about 330,000 compounds; about 7,700 (2.3%) were called active. This list was built around the results that the source calls inconclusive (neither active nor inactive); the mix of calls is not that of the screen. Calls come from the whole dose curve; as a rule, active = well fitted inhibition curve with a large enough effect; inconclusive = small, poorly fitted or top-dose-only effect, or effect the other way; inactive = flat fitted curve, though single readings scatter. A potency beside an inconclusive call is a rough fit, not a confirmed value.

Assay: qHTS screen for small molecules that inhibit ELG1-dependent DNA repair in human embryonic kidney (HEK293T) cells expressing luciferase-tagged ELG1; note: nearly all actives have a fitted effect of over 55% in size
Conditions: HEK293T ELG1-luciferase reporter, luminescence, 16 h, DNA damage induced by 5-fluorouridine; activity change, negative = inhibition: at 46.1 µM (top of the series)
Procedure, shortened: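 Overnight (16 hr) co-exposure of 2,000 cells/well to 5-fluorouridine and compound at 37 °C preceded detection. Luciferase was quantified via ONE-Glo luminescence; loss of signal denotes inhibition.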
% is set by controls: 0 for no effect and ±100 for the full control effect; potency is the fitted concentration of half-maximal effect.

| Compound | Potency | activity change, negative = inhibition |
| --- | --- | --- |
| COC(=O)C1=C(c2c(C)noc2C)C[C@@H]2CC[C@H]1N2C(=O)N1CCOCC1 | inactive | – |
| Cc1c(C(=O)N2CCC3(CC2)OCCO3)sc2ncnc(N3CCc4ccccc4C3)c12 | active: 20.6 µM | – |
| CCCCn1c(N)c(C(=O)NCCN2CCOCC2)c2nc3ccccc3nc21 | active: 5.8 µM | – |
| CCCc1c(C)nc(-c2ccc(C)cc2)nc1OC(=O)N(C)C | inconclusive: 23.1 µM [activator, partial curve, poor fit] | – |
| CN1C(=O)N(C)C(=O)C2(Cc3ccccc3N3CCCC32)C1=O (stereo unspecified) | inconclusive: 29.1 µM [activator, single point] | – |
| C[C@H]1COC(=O)[C@@H](Cc2ccc(F)cc2)CC/C=C/C[C@H](CC(=O)N(CCO)Cc2ccccc2)C(=O)N1 | inactive | – |
| CN1C[C@H](CNC(=O)OCc2ccccc2)C[C@@H]2c3cccc4c3c(cn4C)C[C@H]21 | inactive | – |
| CC1=CC(=O)NP(=O)(Oc2ccc3ccccc3c2)N1 (stereo unspecified) | inconclusive: 29.1 µM [inhibitor, single point] | – |
| O=C(CN1CCOCC1)c1ccc(Br)cc1 | inconclusive: 5.17 µM [activator, full curve, poor fit] | – |
| N=Cc1c(O)n(-c2ccccc2)c(=O)n(-c2ccccc2)c1=O | inactive | – |
| CCc1nc2ccccc2c(=O)n1-c1ccc2ccccc2c1 | inactive | – |
| Cn1c(O)c(C(=Nc2ccccc2)SCc2ccc(Cl)cc2)c(=O)n(C)c1=O | inconclusive: 16.4 µM [inhibitor, partial curve, poor fit] | – |
| Brc1ccccc1-c1ccccc1 | inconclusive: 10.3 µM [activator, partial curve] | – |
| N#Cc1ccc(NC(=O)CN2C(=O)NC3(CCCC3)C2=O)cc1Cl | inconclusive: 14.6 µM [activator, partial curve, poor fit] | – |
| CNC(=O)Oc1ccc(-c2cn3cc(Cl)ccc3n2)cc1 | inconclusive: 2.31 µM [activator, partial curve] | – |
| CCc1c(C)c2ccc(OCC(N)=O)cc2oc1=O | inconclusive: 23.1 µM [activator, partial curve] | – |
| COc1ccc(NC(=O)N2C[C@@H]3C[C@@H](C2)c2cccc(=O)n2C3)c(OC)c1 | inactive | – |
| Cc1ccc(Cn2cc(C=O)c3ccccc32)cc1 | inconclusive: 20.6 µM [inhibitor, partial curve] | – |
| O=C(c1ccc(CNS(=O)(=O)c2ccc(Br)cc2)cc1)N1CCC2(CC1)OCCO2 | inconclusive: 16.4 µM [inhibitor, partial curve] | – |
| O=[N+]([O-])c1cccc(CN2CCN(Cc3ccc(Cl)cc3)CC2)c1 | inconclusive: 29.1 µM [inhibitor, single point] | – |
| COC(=O)C1=C(c2cccc(OCc3ccccc3)c2)C[C@@H]2CC[C@H]1N2C(=O)NCc1ccc(N(C)C)cc1 | inconclusive: 20.6 µM [inhibitor, single point] | – |
| Nc1ccc2c(c1)Cc1cc([N+](=O)[O-])ccc1-2 | inconclusive: 20.6 µM [activator, partial curve] | – |
| CC(=O)O[C@H]1CC[C@@]2(C)C(=CC[C@@H]3[C@@H]2CC[C@]2(C)C(=O)CC[C@@H]32)C1 | inactive | – |
| CC(=O)c1ccc(NC(=O)c2cc(CC(C)C)on2)cc1 | inconclusive: 29.1 µM [activator, single point] | – |

| Compound | Potency | activity change, negative = inhibition |
| --- | --- | --- |
| CCCCCn1c(NC(=O)c2ccco2)c(C(=O)OCC)c2nc3ccccc3nc21 | inactive | – |
| O=C(Cn1c(=O)oc2cc(S(=O)(=O)N3CCc4ccccc43)ccc21)NC1CCCC1 | inconclusive: 25.9 µM [inhibitor, single point] | – |
| O=C(c1ccc2c(c1)OCO2)C1CCCN(Cc2ccccn2)C1 (stereo unspecified) | inactive | – |
| COc1cc(-n2c(=S)[nH]c3ccc(C)cc3c2=O)c(Cl)cc1Cl | active: 16.4 µM | – |
| COc1ccc(-c2cc(-c3ccccc3)[n+](C)c(-c3ccccc3)c2)cc1 | inconclusive: 4.61 µM [inhibitor, single point] | – |
| NC(=O)c1sc2nc3c(c(-c4cccs4)c2c1N)CCCC3 | active: 2.31 µM | – |
| CCn1c(C)nc2cc(S(=O)(=O)Nc3ccc(C)cc3)ccc21 | inconclusive: 29.1 µM [inhibitor, single point] | – |
| COc1cc(OC)c(OC)cc1/C=C(\C#N)C(=O)NCc1cccs1 | inconclusive: 20.6 µM [inhibitor, partial curve, poor fit] | – |
| COc1ccc(C(CC(=O)Nc2ccccn2)N2Cc3ccccc3C2=O)cc1 (stereo unspecified) | inconclusive: 9.2 µM [activator, partial curve] | – |
| Cc1ccc2c(c1)CNc1ccccc1O2 | inconclusive: 16.4 µM [activator, partial curve, poor fit] | – |
| CN(C)C(=O)Oc1cccc(-c2cn3cc(Cl)ccc3n2)c1 | inconclusive: 10.3 µM [activator, partial curve] | – |
| NS(=O)(=O)c1ccc(CCNC(=O)c2ccc(Cl)c(S(=O)(=O)N3CCCCC3)c2)cc1 | active: 16.4 µM | – |
| CNC(=O)Nc1ccc(C(O)(C(=O)OC)C(F)(F)F)cc1 (stereo unspecified) | inconclusive: 25.9 µM [activator, single point] | – |
| O=C1NC(=O)C(=Cc2ccc(Oc3ccc([N+](=O)[O-])cc3)cc2)C(=O)N1 | inactive | – |
| Cn1c(O)c(C=Nc2ccccc2-c2ccccc2)c(=O)n(C)c1=O | inactive | – |
| CN1CC=C(c2c[nH]c3ccccc23)CC1 | inactive | – |
| Cc1cc(OCC(=O)O)c2c3c(c(=O)oc2c1)CCCC3 | inactive | – |
| CN(C)c1ccc2c(c1)N=C(c1ccco1)OP2(=S)N1CCOCC1 (stereo unspecified) | inconclusive: 14.6 µM [activator, partial curve] | – |
| COc1ccc(OC)c(/C=N/OC(=O)Nc2ccc(Cl)cc2)c1 | inactive | – |
| CN(Cc1ccccc1)C(=O)Cn1c(=O)oc2cc(S(=O)(=O)NCc3ccccc3)ccc21 | inconclusive: 9.2 µM [inhibitor, partial curve] | – |
| CP(=O)(Nc1ccc(Cl)cc1)c1nc2c(s1)CCCC2 (stereo unspecified) | inconclusive: 23.1 µM [inhibitor, partial curve] | – |
| CC(=O)Nc1ccccc1C(=O)OCc1ccc(F)cc1 | inconclusive: 20.6 µM [activator, single point] | – |
| OC1(c2ccc(F)cc2)CC2CCC(C1)N2Cc1nnnn1C1CCCCC1 (stereo unspecified) | inconclusive: 17.8 µM [inhibitor, partial curve, poor fit] | – |
| COc1ccc(-c2cc(=NCCCCCC(=O)O)c3cc(C)ccc3o2)cc1 | – | inconclusive: 127% [activator] |

| Compound | Potency | activity change, negative = inhibition |
| --- | --- | --- |
| Cc1ccnc(-n2c(C)cc(/C=C3\C(=O)NC(=S)N(C)C3=O)c2C)c1 | inconclusive: 23.1 µM [activator, single point] | – |
| Cc1cccc(-n2c(C)nc3ccccc3c2=O)n1 | inconclusive: 18.4 µM [activator, partial curve, poor fit] | – |
| COc1ccc(-c2nn(CCC#N)cc2C(=O)NCc2ccccc2)cc1OC | inactive | – |
| CSc1ncc(CN2CCCC(C(=O)c3cccc(Cl)c3)C2)cn1 (stereo unspecified) | inactive | – |
| O=c1[nH]c(=O)n(Cc2ccc(F)cc2)c(O)c1/C=N/Nc1ccccc1 | active: 1.83 µM | – |
| Cc1ccc2c(c1N)C(=O)c1ccccc1C2=O | inconclusive: 9.2 µM [activator, partial curve] | – |
| CN1CCC(N(C)c2ncnc3ccc(Br)cc23)CC1 | inconclusive: 11.6 µM [inhibitor, partial curve] | – |
| CN1CCN(c2ccc(S(C)(=O)=O)cc2[N+](=O)[O-])CC1 | inactive | – |
| C[C@@H]1CN([C@@H](C)CO)C(=O)c2cccc(NC(=O)c3ccncc3)c2O[C@@H]1CN(C)Cc1ccc(-c2ccccc2)cc1 | inactive | – |
| COc1cccc(-n2c(=S)[nH]c3ccccc3c2=O)c1 | inconclusive: 11.6 µM [activator, partial curve, poor fit] | – |
| CCc1nc2ccc(N3CCN(C)CC3)cc2nc1CC | inconclusive: 18.3 µM [activator, single point] | – |
| Cc1ccc2nc3c(cc2c1)CC1(C(=O)N(C)C(=O)N(C)C1=O)C1COCCN31 (stereo unspecified) | inconclusive: 14.6 µM [activator, single point] | – |
| COC1=CC(=O)O[C@@H](/C=C/c2ccccc2)C1 | inconclusive: 16.4 µM [activator, single point] | – |
| CC(C)(C)C(=O)c1cn(Cc2ccccc2)c2ccccc12 | inactive | – |
| CC1=C(C(=O)O)N2C(=O)C(NC(=O)CCCC(=O)O)C2SC1 (stereo unspecified) | inactive | – |
| Cc1nn(Cc2ccccc2)c(C)c1C(=O)OCC(=O)Nc1ccccc1SCC#N | inconclusive: 20.6 µM [inhibitor, single point] | – |
| C[C@]12CC[C@H](O)C[C@H]1CC[C@@H]1[C@@H]2CC[C@]2(C)[C@@H](C3=CC(=O)OC3)CC[C@]12O | inconclusive: 1.12 µM [inhibitor, full curve, poor fit] | – |
| C=CCc1ccc(OCCn2nnc3ccccc32)c(OC)c1 | inconclusive: 18.3 µM [activator, partial curve] | – |
| Cn1c(O)c(/C=N/NC(=O)c2ccncc2)c(=O)n(C)c1=S | inactive | – |
| COc1ccc(-c2cc(=Nc3cccc(C(=O)O)c3)c3cc(C)ccc3o2)cc1 | inconclusive: 11.6 µM [activator, partial curve] | – |
| CCOC(=O)c1c(N)n(Cc2ccco2)c2nc3ccccc3nc12 | inconclusive: 29.1 µM [inhibitor, single point] | – |
| CCC(C)NC(=O)c1c(N)n(CCCOC)c2nc3ccccc3nc12 (stereo unspecified) | active: 16.4 µM | – |
| Cc1ccc(C)c(NP(=O)(Oc2ccccc2)Oc2ccccc2)c1 | active: 8.2 µM | – |

One compound at a time, from the list above.
COc1ccc(-c2cc(=NCCCCCC(=O)O)c3cc(C)ccc3o2)cc1 in the list: activity change, negative = inhibition: inconclusive: 127% [activator]
COc1cc(OC)c(OC)cc1/C=C(\C#N)C(=O)NCc1cccs1 in the list: Potency: inconclusive: 20.6 µM [inhibitor, partial curve, poor fit]
COC1=CC(=O)O[C@@H](/C=C/c2ccccc2)C1 in the list: Potency: inconclusive: 16.4 µM [activator, single point]
Nc1ccc2c(c1)Cc1cc([N+](=O)[O-])ccc1-2 in the list: Potency: inconclusive: 20.6 µM [activator, partial curve]
